Results published in the supplement of paper PMC12823440, “Inhibitors supercharge kinase turnover through native proteolytic circuits” (Nature, 2025).
Structures can show the parent of a compound that is named as a salt. The list shows a part of the results. The calls rarely recur for the same compound in another form.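 Kinases, fused to nanoluciferase, were expressed in K562 cells; luminescence was measured every 4 h from 2 to 18 h as percent of control (DMSO = 100%, positive control = 0%). A time point is decreased if signal falls significantly (2 sigma). Hits were called by the authors by a rule that is not shown; the count of time points alone does not decide it.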

By UniProt entry, the sequences of proteins in these tests, tags left out. Where a name states a change or a piece, a line headed by the entry shows the natural chain unless it says otherwise.
UniProt Q01974, whole entry: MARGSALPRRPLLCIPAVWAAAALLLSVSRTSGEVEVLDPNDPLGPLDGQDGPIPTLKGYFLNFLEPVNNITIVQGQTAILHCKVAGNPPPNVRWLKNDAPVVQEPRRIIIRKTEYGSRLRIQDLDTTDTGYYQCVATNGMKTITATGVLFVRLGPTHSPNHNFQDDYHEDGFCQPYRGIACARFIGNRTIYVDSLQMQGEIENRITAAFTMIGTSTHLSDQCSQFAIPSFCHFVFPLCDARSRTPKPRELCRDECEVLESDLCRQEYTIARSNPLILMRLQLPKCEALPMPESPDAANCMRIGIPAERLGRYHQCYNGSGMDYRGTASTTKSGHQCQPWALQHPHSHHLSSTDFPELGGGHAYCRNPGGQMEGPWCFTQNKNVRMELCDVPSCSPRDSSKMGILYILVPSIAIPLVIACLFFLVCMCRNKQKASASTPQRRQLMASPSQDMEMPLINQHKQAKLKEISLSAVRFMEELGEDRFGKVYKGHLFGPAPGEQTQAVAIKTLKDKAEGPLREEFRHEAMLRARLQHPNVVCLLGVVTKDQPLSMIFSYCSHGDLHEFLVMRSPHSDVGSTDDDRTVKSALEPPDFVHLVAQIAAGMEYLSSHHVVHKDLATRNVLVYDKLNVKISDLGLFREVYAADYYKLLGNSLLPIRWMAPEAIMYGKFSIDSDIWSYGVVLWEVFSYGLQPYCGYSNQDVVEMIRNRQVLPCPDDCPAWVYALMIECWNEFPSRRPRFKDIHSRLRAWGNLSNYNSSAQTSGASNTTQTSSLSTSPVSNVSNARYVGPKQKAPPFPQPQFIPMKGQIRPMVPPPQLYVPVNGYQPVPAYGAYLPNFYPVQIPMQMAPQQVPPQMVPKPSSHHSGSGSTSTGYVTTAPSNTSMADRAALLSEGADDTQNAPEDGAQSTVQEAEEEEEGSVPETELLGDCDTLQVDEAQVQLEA
UniProt Q15418, whole entry: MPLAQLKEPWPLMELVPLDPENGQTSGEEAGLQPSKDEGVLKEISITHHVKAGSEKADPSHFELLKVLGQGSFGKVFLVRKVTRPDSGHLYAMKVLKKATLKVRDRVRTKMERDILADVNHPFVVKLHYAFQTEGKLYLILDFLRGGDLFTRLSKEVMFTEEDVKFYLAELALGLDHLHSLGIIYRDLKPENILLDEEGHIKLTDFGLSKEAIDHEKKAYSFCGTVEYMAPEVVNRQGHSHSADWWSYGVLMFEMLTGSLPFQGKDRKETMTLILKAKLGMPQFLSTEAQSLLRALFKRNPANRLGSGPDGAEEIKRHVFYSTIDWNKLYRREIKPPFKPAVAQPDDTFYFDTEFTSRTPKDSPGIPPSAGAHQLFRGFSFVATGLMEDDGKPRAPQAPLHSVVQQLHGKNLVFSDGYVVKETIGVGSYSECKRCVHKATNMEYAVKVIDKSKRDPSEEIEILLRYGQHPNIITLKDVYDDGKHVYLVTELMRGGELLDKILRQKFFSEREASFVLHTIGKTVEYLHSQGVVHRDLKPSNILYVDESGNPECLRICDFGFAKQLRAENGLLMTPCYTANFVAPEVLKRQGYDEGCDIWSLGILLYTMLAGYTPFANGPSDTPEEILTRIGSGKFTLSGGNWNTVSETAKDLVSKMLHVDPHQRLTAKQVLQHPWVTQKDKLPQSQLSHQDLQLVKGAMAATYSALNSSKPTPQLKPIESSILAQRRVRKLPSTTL
UniProt Q9NYA1, whole entry: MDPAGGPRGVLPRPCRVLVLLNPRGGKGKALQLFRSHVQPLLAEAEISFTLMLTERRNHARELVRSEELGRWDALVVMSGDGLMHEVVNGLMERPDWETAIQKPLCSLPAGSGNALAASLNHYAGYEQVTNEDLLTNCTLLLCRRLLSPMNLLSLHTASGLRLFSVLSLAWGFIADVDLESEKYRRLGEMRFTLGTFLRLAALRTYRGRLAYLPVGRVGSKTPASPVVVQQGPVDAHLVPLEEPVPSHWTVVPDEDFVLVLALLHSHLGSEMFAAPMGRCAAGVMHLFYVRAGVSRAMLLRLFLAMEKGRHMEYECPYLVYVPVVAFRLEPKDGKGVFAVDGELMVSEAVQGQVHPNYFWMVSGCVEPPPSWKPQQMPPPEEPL
UniProt Q9Y6E0: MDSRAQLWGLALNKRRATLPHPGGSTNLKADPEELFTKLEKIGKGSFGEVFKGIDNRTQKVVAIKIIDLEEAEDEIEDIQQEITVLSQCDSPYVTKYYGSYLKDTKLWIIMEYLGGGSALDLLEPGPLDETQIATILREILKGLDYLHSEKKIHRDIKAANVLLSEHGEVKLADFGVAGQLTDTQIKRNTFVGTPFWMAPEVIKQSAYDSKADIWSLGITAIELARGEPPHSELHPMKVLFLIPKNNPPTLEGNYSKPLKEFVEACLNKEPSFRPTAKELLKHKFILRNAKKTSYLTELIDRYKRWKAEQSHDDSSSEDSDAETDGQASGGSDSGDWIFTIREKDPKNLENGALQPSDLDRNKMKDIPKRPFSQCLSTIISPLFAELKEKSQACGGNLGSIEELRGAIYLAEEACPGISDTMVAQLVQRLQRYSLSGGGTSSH
UniProt Q15208: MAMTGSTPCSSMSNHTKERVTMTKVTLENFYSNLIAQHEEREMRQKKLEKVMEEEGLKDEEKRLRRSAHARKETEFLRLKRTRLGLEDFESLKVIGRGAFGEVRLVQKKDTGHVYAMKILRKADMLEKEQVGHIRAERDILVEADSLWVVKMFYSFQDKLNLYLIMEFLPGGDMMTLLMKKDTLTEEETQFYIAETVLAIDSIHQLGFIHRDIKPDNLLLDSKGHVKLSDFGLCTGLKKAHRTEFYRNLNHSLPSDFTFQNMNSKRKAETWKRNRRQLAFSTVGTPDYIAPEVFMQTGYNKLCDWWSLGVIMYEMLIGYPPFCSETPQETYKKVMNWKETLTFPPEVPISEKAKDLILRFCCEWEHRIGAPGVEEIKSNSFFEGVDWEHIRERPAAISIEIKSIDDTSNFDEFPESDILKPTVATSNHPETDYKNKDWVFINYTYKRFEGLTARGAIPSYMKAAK
UniProt P29597: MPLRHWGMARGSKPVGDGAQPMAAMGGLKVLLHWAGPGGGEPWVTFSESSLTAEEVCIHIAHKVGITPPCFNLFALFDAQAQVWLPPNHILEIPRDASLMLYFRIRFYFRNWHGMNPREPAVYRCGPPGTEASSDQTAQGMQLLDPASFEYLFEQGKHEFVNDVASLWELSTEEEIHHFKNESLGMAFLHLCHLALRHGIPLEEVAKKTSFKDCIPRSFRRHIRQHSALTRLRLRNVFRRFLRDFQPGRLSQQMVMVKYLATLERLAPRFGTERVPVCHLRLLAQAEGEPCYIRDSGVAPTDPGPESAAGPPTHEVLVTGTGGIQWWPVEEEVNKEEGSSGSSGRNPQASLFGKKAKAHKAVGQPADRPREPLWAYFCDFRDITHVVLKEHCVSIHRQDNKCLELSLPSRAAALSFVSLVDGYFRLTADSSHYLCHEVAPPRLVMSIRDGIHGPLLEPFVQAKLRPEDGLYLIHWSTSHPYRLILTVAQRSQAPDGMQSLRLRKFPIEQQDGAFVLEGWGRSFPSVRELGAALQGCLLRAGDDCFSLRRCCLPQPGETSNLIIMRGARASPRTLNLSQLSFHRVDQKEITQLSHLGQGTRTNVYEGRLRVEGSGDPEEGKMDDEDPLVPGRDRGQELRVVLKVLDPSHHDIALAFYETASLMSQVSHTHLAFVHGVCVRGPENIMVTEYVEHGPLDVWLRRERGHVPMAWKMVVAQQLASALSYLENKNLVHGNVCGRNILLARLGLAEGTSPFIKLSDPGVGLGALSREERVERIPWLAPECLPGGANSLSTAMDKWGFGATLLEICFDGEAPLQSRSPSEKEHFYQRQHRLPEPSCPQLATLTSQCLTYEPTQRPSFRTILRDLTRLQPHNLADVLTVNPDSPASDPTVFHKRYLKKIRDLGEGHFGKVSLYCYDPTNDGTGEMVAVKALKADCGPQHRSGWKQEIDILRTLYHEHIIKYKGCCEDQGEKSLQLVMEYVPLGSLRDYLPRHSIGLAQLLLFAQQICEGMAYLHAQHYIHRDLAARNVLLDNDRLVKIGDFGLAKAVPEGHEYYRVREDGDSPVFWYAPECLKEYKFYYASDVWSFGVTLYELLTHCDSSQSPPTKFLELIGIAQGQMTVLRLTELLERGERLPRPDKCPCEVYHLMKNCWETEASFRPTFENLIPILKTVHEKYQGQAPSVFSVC
UniProt P07947, whole entry, looked up: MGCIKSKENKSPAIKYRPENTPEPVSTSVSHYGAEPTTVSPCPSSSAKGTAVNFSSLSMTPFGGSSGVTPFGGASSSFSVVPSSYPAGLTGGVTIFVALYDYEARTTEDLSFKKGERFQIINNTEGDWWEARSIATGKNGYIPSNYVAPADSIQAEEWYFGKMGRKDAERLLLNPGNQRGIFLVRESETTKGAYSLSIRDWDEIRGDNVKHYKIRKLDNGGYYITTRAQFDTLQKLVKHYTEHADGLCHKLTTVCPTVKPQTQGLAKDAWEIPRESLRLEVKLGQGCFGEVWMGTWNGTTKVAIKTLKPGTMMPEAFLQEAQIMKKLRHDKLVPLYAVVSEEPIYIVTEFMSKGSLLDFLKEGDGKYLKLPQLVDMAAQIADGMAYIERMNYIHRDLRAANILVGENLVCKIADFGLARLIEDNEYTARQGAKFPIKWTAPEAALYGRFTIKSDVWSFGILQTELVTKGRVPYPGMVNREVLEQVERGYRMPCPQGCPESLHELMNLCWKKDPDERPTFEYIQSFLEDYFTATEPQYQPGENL
UniProt P43403: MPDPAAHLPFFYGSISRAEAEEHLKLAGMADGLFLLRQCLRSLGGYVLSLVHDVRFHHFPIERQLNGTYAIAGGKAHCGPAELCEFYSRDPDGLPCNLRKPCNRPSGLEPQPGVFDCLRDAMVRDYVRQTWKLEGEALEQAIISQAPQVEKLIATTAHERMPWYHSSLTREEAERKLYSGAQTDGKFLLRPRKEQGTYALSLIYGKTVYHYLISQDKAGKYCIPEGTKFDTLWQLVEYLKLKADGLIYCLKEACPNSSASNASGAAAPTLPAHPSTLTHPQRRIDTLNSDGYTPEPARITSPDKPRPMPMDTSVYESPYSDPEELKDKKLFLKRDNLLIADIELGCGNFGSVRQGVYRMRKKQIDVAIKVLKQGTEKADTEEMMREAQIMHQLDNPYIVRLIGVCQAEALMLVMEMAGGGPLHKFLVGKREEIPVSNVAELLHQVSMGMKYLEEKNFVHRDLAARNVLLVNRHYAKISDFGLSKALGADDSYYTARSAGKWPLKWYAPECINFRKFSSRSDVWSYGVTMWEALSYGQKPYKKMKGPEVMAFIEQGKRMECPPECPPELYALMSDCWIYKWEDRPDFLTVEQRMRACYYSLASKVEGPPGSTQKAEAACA
UniProt P11802: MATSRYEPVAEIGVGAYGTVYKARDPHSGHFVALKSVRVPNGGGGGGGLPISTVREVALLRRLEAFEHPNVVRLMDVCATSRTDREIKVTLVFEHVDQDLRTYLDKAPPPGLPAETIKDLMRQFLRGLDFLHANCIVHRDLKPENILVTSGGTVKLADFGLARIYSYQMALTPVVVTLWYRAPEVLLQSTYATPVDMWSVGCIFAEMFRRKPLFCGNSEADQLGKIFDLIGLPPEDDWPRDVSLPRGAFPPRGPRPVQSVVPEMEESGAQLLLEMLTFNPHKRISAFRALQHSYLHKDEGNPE
UniProt P50613: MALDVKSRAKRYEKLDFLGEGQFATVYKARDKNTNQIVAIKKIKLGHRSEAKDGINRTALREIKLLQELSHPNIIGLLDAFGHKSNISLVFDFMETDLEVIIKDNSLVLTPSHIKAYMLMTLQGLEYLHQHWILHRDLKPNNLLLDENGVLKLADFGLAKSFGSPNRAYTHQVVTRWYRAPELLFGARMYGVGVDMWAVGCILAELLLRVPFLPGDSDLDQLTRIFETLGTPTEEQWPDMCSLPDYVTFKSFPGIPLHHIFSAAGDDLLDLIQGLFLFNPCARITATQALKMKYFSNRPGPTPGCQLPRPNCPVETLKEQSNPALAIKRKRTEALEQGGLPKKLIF
UniProt P50750, whole entry: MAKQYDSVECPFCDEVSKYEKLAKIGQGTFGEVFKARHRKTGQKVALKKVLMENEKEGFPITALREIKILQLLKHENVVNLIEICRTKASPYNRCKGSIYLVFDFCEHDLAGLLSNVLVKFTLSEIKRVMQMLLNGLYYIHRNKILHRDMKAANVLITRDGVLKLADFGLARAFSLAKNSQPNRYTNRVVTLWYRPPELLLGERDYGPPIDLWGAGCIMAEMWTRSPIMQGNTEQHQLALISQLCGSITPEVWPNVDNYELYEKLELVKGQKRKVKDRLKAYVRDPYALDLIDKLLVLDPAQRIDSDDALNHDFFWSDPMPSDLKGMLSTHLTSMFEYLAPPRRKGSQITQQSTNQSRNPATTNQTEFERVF

Key:
Conditions in all cases: K562; 2-18 h
ROR2 = ROR2 (UniProt Q01974); assay: number of time points (of 5) at which kinase-Nluc abundance scored as decreased, DMSO-normalised (count); higher = more persistent destabilization
RPS6KA1 = RPS6KA1 (UniProt Q15418); assay: as above
SPHK1 = SPHK1 (UniProt Q9NYA1); assay: as above
SRC = SRC (UniProt P12931); assay: as above
STK24 = STK24 (UniProt Q9Y6E0); assay: as above
STK38 = STK38 (UniProt Q15208); assay: as above
SYK = SYK (UniProt P43405); assay: as above
TEC = TEC (UniProt P42680); assay: as above
TYK2 = TYK2 (UniProt P29597); assay: as above
ULK3 = ULK3 (UniProt Q6PHR2); assay: as above
YES1 = YES1 (UniProt P07947); assay: as above
ZAK = ZAK (UniProt Q9NYL2); assay: as above
ZAP70 = ZAP70 (UniProt P43403); assay: as above
CDK4 = CDK4 (UniProt P11802); assay: number of time points (of 4; 2 h point missing) at which kinase-Nluc abundance scored as decreased, DMSO-normalised (count); higher = more persistent destabilization
CDK7 = CDK7 (UniProt P50613); assay: as above
CDK9 = CDK9 (UniProt P50750); assay: as above

Compound	number of time points (ROR2)	number of time points (RPS6KA1)	number of time points (SPHK1)	number of time points (SRC)	number of time points (STK24)	number of time points (STK38)	number of time points (SYK)	number of time points (TEC)	number of time points (TYK2)	number of time points (ULK3)	number of time points (YES1)	number of time points (ZAK)	number of time points (ZAP70)	number of time points (CDK4)	number of time points (CDK7)	number of time points (CDK9)
O=C1NC(=O)/C(=C\c2cccc(C(F)(F)F)c2)S1 (2.5 µM)	0	0	0	0	0	0	0	0	0	0	0	0	0	0	0	0
C[C@]1(O)CCN(c2nc(N3C[C@H](O)[C@@H](O)C3)cc(C(F)(F)F)c2C#N)C1 (10 µM)	0	0	0	0	0	0	0	0	0	0	0	0	0	0	0	0
Cc1cccc(-c2[nH]ncc2-c2ccc(F)c(-c3cnn(CCO)c3)c2)n1 (10 µM)	0	0	0	0	0	0	0	0	0	0	0	0	0	0	0	0
Cn1cnc(Cn2ccc3ccc(CNCc4[nH]c5ccccc5c4[C@H]4NC(=O)c5ccc(O)cc54)cc32)c1 (10 µM)	0	0	0	0	0	0	0	0	0	0	0	0	0	0	0	0
COc1cc2nccc(Oc3ccc(NC(=O)NC4CC4)c(Cl)c3)c2cc1C(N)=O [Lenvatinib (mesylate)] (10 µM)	0	0	0	0	0	0	0	1	3	3	1	1	0	0	2	1
NS(=O)(=O)c1ccc(-n2nc(C(F)(F)F)cc2-c2ccc(Cl)cc2)cc1 (10 µM)	0	0	0	0	0	0	0	0	0	0	0	0	0	0	0	0
Oc1cc2c(cc1O)C(Cc1cccc3ccccc13)NCC2 (stereo unspecified) (10 µM)	0	0	0	0	0	0	0	0	0	0	0	0	0	0	0	0
CCc1c(C(=O)NNC(=O)C(O)c2cc(F)cc(F)c2)ccc(O)c1C (stereo unspecified) (10 µM)	0	0	0	0	0	0	0	0	0	0	0	0	0	0	0	0
COc1cc2c(N3CCN(C(=O)Nc4ccc(OC(C)C)cc4)CC3)ncnc2cc1OCCCN1CCCCC1 [Tandutinib (hydrochloride)] (10 µM)	0	0	0	0	0	0	0	0	0	0	0	0	0	0	0	0
CS(=O)(=O)Nc1cc(-c2ccc3ncnc(Nc4ccc(F)c(Cl)c4)c3c2)cnc1Cl (2.5 µM)	0	0	0	0	0	0	0	2	0	0	0	0	0	0	0	0
NC(=O)c1nnc(N[C@@H]2CCCC[C@@H]2N)nc1Nc1cccc2cc[nH]c12 (10 µM)	0	0	0	0	0	0	0	0	0	0	0	0	0	0	0	0
OCCn1cc(-c2ccc3c(c2)CC/C3=N\O)c(-c2ccncc2)n1 (10 µM)	0	0	0	0	0	0	0	0	0	0	0	0	0	0	0	0
Cc1nc2sccn2c(=O)c1CCN1CCC(=C(c2ccccc2)c2ccc(F)cc2)CC1 (10 µM)	0	0	0	0	0	0	0	0	0	0	0	0	0	0	0	0
C=CC(=O)Nc1cccc(Nc2nc(Nc3ccc(NC4CN(CCF)C4)cc3OC)ncc2C(F)(F)F)c1 (2.5 µM)	0	0	0	0	0	0	0	0	0	0	0	0	0	0	0	0
Oc1cc(O)c2cc(O)c(-c3cc(O)c(O)c(O)c3)[o+]c2c1 [Delphinidin (chloride)] (10 µM)	0	2	0	0	0	0	3	0	3	0	0	1	3	2	1	0
Nc1cc(C(F)(F)F)c(-c2cc(N3CCOCC3)nc(N3CCOCC3)n2)cn1 [Buparlisib (Hydrochloride)] (2.5 µM)	1	0	0	0	0	0	0	0	2	0	0	0	0	0	0	0
Cc1ccc(C(=O)Nc2ccc(Oc3cc4cnn(C)c4cc3-c3cn[nH]c3)c(F)c2)c(=O)n1-c1ccc(F)cc1 [Merestinib dihydrochloride] (2.5 µM)	0	0	0	0	0	0	0	0	0	0	0	0	0	0	0	0
COc1cc2c(cc1OC)CN(S(=O)(=O)c1ccc(OC)c(N3CCN(C(=O)c4ccc(F)cc4C(F)(F)F)CC3)c1)CC2 (10 µM)	0	0	0	0	0	0	0	0	0	0	0	0	0	0	0	0
CC1CCc2c(cc(Br)c(F)c2Br)N1C=O (stereo unspecified) (10 µM)	0	0	0	0	0	0	0	0	0	0	0	0	0	0	0	0
Cn1cnc2c(F)c(Nc3ccc(Br)cc3Cl)c(C(=O)NOCCO)cc21 [Selumetinib (sulfate)] (10 µM)	0	0	0	0	0	0	0	0	0	0	0	0	0	0	1	0
COc1cc(Nc2ncc(F)c(Nc3ccc4c(n3)N(COP(=O)(O)O)C(=O)C(C)(C)O4)n2)cc(OC)c1OC [Fostamatinib (disodium hexahydrate)] (10 µM)	0	0	0	0	0	1	0	0	0	0	0	0	0	0	1	0
C[C@@]1(c2ncncc2F)NC(=O)c2cc(-c3cn[nH]c3)ccc21 (10 µM)	0	0	0	0	0	0	0	0	0	0	0	0	0	0	0	0
CC(C)(C)c1cc(O)ccc1O (10 µM)	0	0	0	0	0	0	0	0	0	0	0	0	0	0	0	0
C[C@@H]1COCCN1c1cc(C2([S@@](C)(=N)=O)CC2)nc(-c2ccnc3[nH]ccc23)n1 [(S)-Ceralasertib] (10 µM)	0	0	0	0	0	0	0	0	0	0	0	0	0	0	0	0
C[C@H](c1ccnc(Nc2nc3ccc(-c4cc(N(C)C)ncn4)cc3[nH]2)c1)N1CCN(C(=O)CC(F)(F)F)CC1 (2.5 µM)	0	0	0	0	0	0	0	0	0	0	0	0	0	0	0	0
CN1CCN(c2cccc(Nc3nc4c(-c5ccc(S(C)(=O)=O)cc5)cccn4n3)c2)CC1 (10 µM)	0	0	0	0	0	0	0	0	0	0	0	0	0	0	0	0

As a working copy, part of the list above.
Compound	number of time points (ROR2)	number of time points (RPS6KA1)	number of time points (SPHK1)	number of time points (SRC)	number of time points (STK24)	number of time points (STK38)	number of time points (SYK)	number of time points (TEC)	number of time points (TYK2)	number of time points (ULK3)	number of time points (YES1)	number of time points (ZAK)	number of time points (ZAP70)	number of time points (CDK4)	number of time points (CDK7)	number of time points (CDK9)
Cn1cnc2c(F)c(Nc3ccc(Br)cc3Cl)c(C(=O)NOCCO)cc21 [Selumetinib (sulfate)] (10 µM)	0	0	0	0	0	0	0	0	0	0	0	0	0	0	1	0
COc1cc(Nc2ncc(F)c(Nc3ccc4c(n3)N(COP(=O)(O)O)C(=O)C(C)(C)O4)n2)cc(OC)c1OC [Fostamatinib (disodium hexahydrate)] (10 µM)	0	0	0	0	0	1	0	0	0	0	0	0	0	0	1	0
